Experimental data taken from patent US9802929B2, “Benzo five-membered nitrogen heterocyclic piperidine or piperazine derivatives and preparation methods and pharmaceutical compositions thereof” (Shenyang Haiwang Biotechnology Co., Ltd., priority 2012, dated 2017).
Some results were stated once for a whole list of compounds, not compound by compound.

Columns and labels:
[1] = system: In Vitro Vascular Smooth Muscle of Rabbits; experiment: Relaxant effect on in vitro rabbit vascular smooth muscle contraction induced by adrenaline (AD); details: AD 10^−5 mol/L
Source text: Krebs-Henseleit (K—H) physiological solution: NaCl 6.92 (concentration units), KCl 0.35, MgSO4 0.29, KH2PO4 0.16, CaCl2 0.28, NaHCO3 2.1, glucose 2.0 (g/L), pH 7.2.
Preparation of compound II-1 to II-87 solutions: Weigh a certain quality compound samples and dilute to concentrations (10^−10˜10^−3 mol/L) with distilled water, standby.
Cut the chest open quickly after stunning, strip out the descending aorta, then after removing the surrounding connective tissue and adipose tissue (if performed serotonin receptor antagonist experiments, endothelial cells should be removed using a smooth stainless steel bars), cut the vessels into 3-5 mm vascular ring, then pass the steel hook through the blood vessel ring, with one end is fixed to the vent hook and the other end connected to the tension transducer, then place the specimens into bath tube containing 20 mL of nutrient solution, and record tension change by tension transducer. Maintain tube temperature at 37±0.5° C., and pass bubbles (95% O2+5% CO2) into the solution as a speed of 1-2 bubbles/minute. Place an initial load of 1.5 g on the rings, and change nutrient every 20 minutes, then balance for 2 hours and start test after baseline readings are stabilized.
After tension readings are stabilized, record a certain length of tension curve, and add spasmogens agent AD (10^−5 mol/L) to induce contraction; if a maximum contract is achieved, wash the specimens thoroughly, and change K—H solution every 20 minutes, and then balance for 60 minutes; after baseline readings are stabilized, induce contract with spasmogens agent again. When the maximum contract in the later induction is consistent with the former induction, add compound II-1 to II-34 solutions (1×10^−10 to 1×10^−3 mol/L), II-35 to II-87 solutions (1×10^−8-1×10^−3 mol/L), and record the curves. Draw a dose-response curve using maximum relaxation response as 100%, relaxation percentage as ordinate and negative logarithms of the each concentration as abscissa.

[2] = system: In-Vitro Vascular Smooth Muscle of Rabbits; experiment: Relaxant effect on in vitro rabbit vascular smooth muscle contraction induced by hyperkalemia solution

Row | SMILES | relaxant effect against AD contraction (in words) [1] | relaxant effect against hyperkalemia solution contraction (in words) [2]
1 | FC(F)(F)c1cccc(N2CCN(CCCCn3cnc4ccccc43)CC2)c1 [Compound II-36, 1-(4-(4-(3-trifluoromethylphenyl)piperazin-1-yl)butyl)-1H-benzimidazole] | Vascular Smooth Muscle Relaxant Effect | Relaxant Effect
2 | Clc1cccc(N2CCN(CCCCn3nnc4ccccc43)CC2)c1 [Compound II-63, 1-(4-(4-(3-chlorophenyl)piperazin-1-yl)butyl)-1H-benzotriazole] | Vascular Smooth Muscle Relaxant Effect | Relaxant Effect
3 | c1ccc2c(c1)nnn2CCCCN1CCN(c2nsc3ccccc23)CC1 [Compound II-68, 3-(4-(4-(1H-benzotriazol-1-yl)butyl)piperazin-1-yl)benzisothiazole] | Vascular Smooth Muscle Relaxant Effect | Relaxant Effect
4 | FC(F)(F)c1cccc(N2CCN(CCCCn3nnc4ccccc43)CC2)c1 [Compound II-65, 1-(4-(4-(3-trifluoromethylphenyl)piperazin-1-yl)butyl)-1H-benzotriazole] | Vascular Smooth Muscle Relaxant Effect | Relaxant Effect
5 | Clc1cccc(N2CCN(CCCCn3cnc4ccccc43)CC2)c1Cl [Compound II-37, 1-(4-(4-(2,3-dichlorophenyl)piperazin-1-yl)butyl)-1H-benzimidazole] | Vascular Smooth Muscle Relaxant Effect | Relaxant Effect
